Data from PubChem BioAssay AID493014 (National Center for Advancing Translational Sciences (NCATS), 2011).
The list shows a part of the results. The main result of the screen is listed elsewhere. These columns were measured beside it and carry no call. Compounds called inactive in the main read-out are mostly missing here. Potencies come from curve fits of mixed quality, noted in brackets.

Experiment: qHTS Assay to Find Inhibitors of Chronic Active B-Cell Receptor Signaling
Conditions: ABC-DLBCL IkBa-CBG/CBR reporter, luminescence ratio (green luciferase fused to IkBa over red control in TMD8 lymphoma cells), 4 h
How it was run: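 TMD8 ABC-DLBCL cells carrying doxycycline-inducible green luciferase fused to IkappaBalpha plus unfused red luciferase were exposed to compounds (up to 46 uM) for 4 hrs at 37C. Activity came from the overlap-corrected green/red luminescence ratio.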

[1] = measured here: CBR red luminescence, cell number
[2] = measured here: IkBa-CBG green luminescence

With `O=C(N/N=C/c1sc(N2CCCCC2)nc1-c1cccs1)C1CC1` as the molecule, how does the AC50 [1] read?
Its AC50 is 20 µM [falling, partial curve, poor fit].

Which AC50 [1] does the source give for `CC(=O)c1cccc(NS(=O)(=O)c2ccc(C(=O)Nc3ccccc3)cc2)c1` here?
The AC50 was 14.1 µM [falling, single point].

With `CCCOP(=O)(c1ccc(N(C)C)cc1)C(O)c1ccncc1` (configuration not stated) as the molecule, how does the AC50 [1] read?
Its AC50 is 29.1 µM [rising, single point].

For `CCOC(=O)C1C(=O)CC(=O)CC1CC(C)SCC` (configuration not stated), which AC50 [1] is on record?
Its AC50 is 29.1 µM [rising, single point].

Which AC50 [1] does the source give for `CNC(=O)CSc1nc2cc(S(=O)(=O)Nc3ccccc3OC)ccc2o1` here?
Its AC50 is 10 µM [falling, partial curve, poor fit].

For `C(=N/Nc1nccs1)/c1cccnc1`, which AC50 [1] is on record?
The AC50 was 31.6 µM [falling, partial curve, poor fit].

With `O=C(c1ccc(COc2ccc(F)cc2)o1)n1cccn1` as the molecule, how does the AC50 [1] read?
The AC50 was 11.2 µM [falling, single point].

For `CC(C)(C)n1cnc2cc(NC(=O)c3ccccc3)ccc21`, which AC50 [1] is on record?
The AC50 was 15.8 µM [falling, single point].

Which AC50 [1] does the source give for `C[C@@]12C(=O)Nc3ccc(Cl)cc3C(=O)N1[C@H]1c3cc(Br)ccc3OC[C@@H]1[C@@H]2c1ccccc1` here?
Its AC50 is 7.31 µM [falling, partial curve].

And the AC50 [2]?
The AC50 was 7.31 µM [rising, partial curve, poor fit].

For `Cc1cccc(N(CC(=O)NC2CCCC2)C(=O)CCC(=O)Nc2nc(C)cs2)c1`, which AC50 [1] is on record?
The AC50 was 17.8 µM [falling, partial curve, poor fit].

With `CC(NC(=O)c1ccccc1Cl)C1CC2CCC1C2` (configuration not stated) as the molecule, how does the AC50 [1] read?
Its AC50 is 35.5 µM [rising, single point].

For `O=C(CSc1nc2ccc(Cl)cc2[nH]1)NCCc1ccc(Cl)cc1`, which AC50 [1] is on record?
The AC50 was 14.6 µM [falling, single point].

Which AC50 [1] does the source give for `CN(C)/C=N/c1c(C(=O)NCc2ccccc2)nnn1Cc1ccccc1` here?
The AC50 was 3.55 µM [rising, single point].

For `COc1ccccc1CNS(=O)(=O)CCNC(=O)c1ccccc1`, which AC50 [1] is on record?
The AC50 was 13 µM [rising, partial curve].

With `O=C(O)Cc1ccc(C(=O)c2ccc(F)cc2)s1` as the molecule, how does the AC50 [1] read?
Its AC50 is 29.1 µM [rising, single point].

With `O=C(O)CCNc1cc(N2CCN(C(=O)c3ccco3)CC2)c2noc3c2c1C(=O)c1ccccc1-3` as the molecule, how does the AC50 [1] read?
Its AC50 is 11.2 µM [falling, partial curve, poor fit].

With `COC(=O)c1sc(NC(=O)COc2cccnc2[N+](=O)[O-])c(C(=O)OC)c1C` as the molecule, how does the AC50 [1] read?
Its AC50 is 13 µM [falling, partial curve, poor fit].

Which AC50 [1] does the source give for `Cc1ccc(S(=O)(=O)NCC(=O)OCc2csc(-c3ccccc3)n2)cc1` here?
Its AC50 is 7.31 µM [falling, partial curve, poor fit].

For `C/C=C/c1ccc(OCC(=O)Nc2cc(S(=O)(=O)N3CCOCC3)ccc2N2CCCC2)c(OC)c1`, which AC50 [1] is on record?
The AC50 was 5.8 µM [falling, partial curve, poor fit].

Which AC50 [1] does the source give for `CC1(NC(=O)c2cccc(S(=O)(=O)N3CCCc4ccccc43)c2)CCS(=O)(=O)C1` (configuration not stated) here?
Its AC50 is 29.1 µM [falling, partial curve, poor fit].

Which AC50 [1] does the source give for `O=C(Nc1ccc(Cl)cn1)c1ccc2c(Cl)c3c(nc2c1)CCC3` here?
Its AC50 is 0.708 µM [falling, full curve, poor fit].

For `COc1ccc(-c2[nH]n(-c3ccc([N+](=O)[O-])cc3)c(=O)c2C=NCC2CCCO2)cc1` (configuration not stated), which AC50 [1] is on record?
Its AC50 is 0.447 µM [rising, full curve, poor fit].

Which AC50 [1] does the source give for `O=C(N/N=C/c1cccc(C(F)(F)F)c1)c1ccc(O)cc1` here?
The AC50 was 11.2 µM [falling, partial curve, poor fit].

For `CCCNC(=O)CCn1nc(-c2ccc(C)cc2)c2ccccc2c1=O`, which AC50 [1] is on record?
Its AC50 is 0.158 µM [rising, full curve, poor fit].

With `O=[N+]([O-])c1cc(S(=O)(=O)C(F)(F)F)ccc1Sc1nc2ccccc2[nH]1` as the molecule, how does the AC50 [1] read?
Its AC50 is 10.3 µM [falling, partial curve].

What about the AC50 [2] of the same molecule?
The AC50 was 18.4 µM [rising, partial curve, poor fit].

For `COc1ccc(CNC(=O)c2sc(=S)n(-c3ccc(OC)cc3)c2N)cc1`, which AC50 [1] is on record?
The AC50 was 29.1 µM [rising, single point].

With `O=[N+]([O-])c1cc(S(=O)(=O)N2CCCC2)ccc1O` as the molecule, how does the AC50 [1] read?
The AC50 was 20.6 µM [rising, partial curve, poor fit].

With `O=C(Nc1ccc(NC(=S)NC(=O)c2cccs2)cc1)c1ccco1` as the molecule, how does the AC50 [1] read?
The AC50 was 14.1 µM [rising, partial curve, poor fit].

What about the AC50 [2] of the same molecule?
Its AC50 is 11.2 µM [falling, single point].

For `Nc1nc(SCC(=O)c2ccc([N+](=O)[O-])cc2)n[nH]1`, which AC50 [1] is on record?
Its AC50 is 8.91 µM [falling, partial curve, poor fit].

With `O=C1CC(c2ccc(Cl)cc2)CC(=O)C1CS(=O)(=O)c1ccccc1` (configuration not stated) as the molecule, how does the AC50 [1] read?
Its AC50 is 15.8 µM [falling, partial curve, poor fit].

Which AC50 [1] does the source give for `O=C(Cc1ccc(Cl)cc1)c1ccc(O)cc1` here?
The AC50 was 11.2 µM [falling, partial curve, poor fit].

Which results are given for `CCC1C/C(=C\c2cc(OC)c(OC)cc2OC)C(=O)/C(=C/c2cc(OC)c(OC)cc2OC)C1` (configuration not stated)?
AC50 [1]: 11.2 µM [falling, partial curve, poor fit]; AC50 [2]: 22.4 µM [rising, partial curve, poor fit]

With `COc1ccc(OC)c(CCNC(=O)C(=O)Nc2ccc3nc4n(c(=O)c3c2)CCCCC4)c1` as the molecule, how does the AC50 [1] read?
Its AC50 is 11.2 µM [rising, partial curve, poor fit].

For `COc1ccc(CN(C(=O)CSc2nnc(-c3c[nH]c4ccccc34)o2)c2ccc(F)cc2)cc1OC`, which AC50 [1] is on record?
The AC50 was 20.6 µM [falling, partial curve].

And the AC50 [2]?
Its AC50 is 18.4 µM [rising, single point].

Which AC50 [1] does the source give for `CCC(OCC(O)CN1CCN(CCN2C(=O)c3cccc4cccc(c34)C2=O)CC1)c1ccccc1` (configuration not stated) here?
Its AC50 is 29.1 µM [falling, single point].

Which AC50 [1] does the source give for `COc1ccc(CCN(C)Cc2ccc(OCc3ccccc3)c(OC)c2)cc1OC` here?
The AC50 was 35.5 µM [falling, single point].

Which AC50 [1] does the source give for `Nc1c(C(=O)Nc2ccccc2)sc2ncc([N+](=O)[O-])cc12` here?
Its AC50 is 0.562 µM [falling, full curve, poor fit].
